Experimental data published in patent US20200109212A1.
Results are given in words; binding and its absence hold for the method and conditions named. Some binding calls cover weakened binding; strength is not graded here.

Legend:
[1] = biological target: canine PD-L1 extracellular domain-human IgG1 Fc fusion protein (canine); assay: ELISA, plate coated with canine PD-L1-hFc, detected with anti-mouse IgG-HRP
[2] = biological target: canine PD-L1 extracellular domain-human IgG1 Fc fusion protein (canine); assay: ELISA, plate coated with canine PD-L1-hFc, two-fold dilutions of mAb, detection with HRP goat anti-mouse IgG, OD 650/490
[3] = biological target: canine PD-L1 extracellular domain-human IgG1 Fc fusion protein (canine); assay: cell-based ELISA (CELISA): mAb pre-incubated with cPD-L1-hFc, then added to CHO cells expressing canine PD-1; bound cPD-L1-hFc detected with anti-human Fc-HRP, OD 450-620 nm; blocked partner: canine PD-1

Measured: binding

B1: mouse anti-canine PD-L1 monoclonal antibody 4F9 (antibody, V domains shown)
VH: EVQLVESGGGLVKPGGSLKLSCAASGFTFSSYAMSWVRQTPDKRLEWVATISDGGSYTHYPDNLMGRFTISRDNAKNNLYLQMSHLKSDDTAMYYCARESYDGYYVANWGQGTLVTVSA
VL: DIVLTQSPATLSVNPGDSVSLSCRASQSISNNLHWYQQKSHESPRLLIKYASQSISGIPSRFSGSGSGTDFTLSINSVETEDFGMYFCQQSNSWPQTFGGGTKLEIK
binds: all assays above
